PubChem BioAssay AID1458 (National Center for Advancing Translational Sciences (NCATS), 2008)
Hit rate of the full screen: of about 210,000 compounds, about 5,900 (2.8%) were called active. About 5% were inconclusive and are not listed. Calls come from the whole dose curve; as a rule, active = well fitted activation curve with a large enough effect; inconclusive = small, poorly fitted or top-dose-only effect; inactive = no such curve, though single readings can be large or run the other way. The list shows a part of the results, in another mix than the full data. The source gives no active or inactive call for entries shown without one.
Potency is the fitted concentration of half-maximal effect.

Assay: qHTS Assay for Enhancers of SMN2 Splice Variant Expression; note: nearly all actives have a fitted effect of over 55% in size; for activity change, positive = activation: % of control where 0% means no effect
Conditions: HEK293 SMN2-luciferase splicing reporter, luminescence, 30-36 h; activity change, positive = activation: at 46.1 µM (top of the series) unless noted
Procedure, shortened: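 HEK293 cells carry an SMN2 minigene-luciferase reporter in which exon 7 inclusion puts luciferase in frame. Cells were seeded at 2000 cells/well, attached for 10-12 hours, then exposed to compounds for 30-36 hours at 37C before ONE-Glo luminescence.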
Work on O=C(/C=C/c1nc2ccccc2s1)N1CCCCCC1 yielded an activity change, positive = activation of 185%. Molecule COc1ccccc1OCC(=O)N/N=C1\CCc2ccccc21 has an activity change, positive = activation of 31.3%. With Cn1cccc1C(=O)N1CCC2(CC1)CCN(c1ncccn1)CC2 the “activity change, positive = activation” value was inactive: -36.2%. O=S(=O)(c1ccc2c(c1)OCCO2)N1CCC(c2nc3ccc(Cl)cc3[nH]2)CC1 showed an activity change, positive = activation of -78%. With CCOC(=O)N1CCN(Cc2ccccc2F)CC1 the activity change, positive = activation was 31.4%. For O=C(Oc1ccc(N2C(=O)CCC2=O)cc1)c1ccccc1Cl, the “activity change, positive = activation” value was inactive: 0.44%. With CC(C)c1cccc(C(C)C)c1NC(=O)COC(=O)C1=COCCO1 the activity change, positive = activation was 35.7%. COc1ccc(N2CCc3c(C)nc4c(OC)cccc4c32)cc1 showed an activity change, positive = activation of -82.7%. For O=C(NC(=S)Nc1ccc(N2CCOCC2)cc1)c1ccc2c(c1)OCCO2, the “activity change, positive = activation” value was inactive: -61%. CC(C)OCC(O)Cn1c(N2CCCC2)nc2c1c(=O)[nH]c(=O)n2C (stereo not given) gave an activity change, positive = activation of 34%. For COC(=O)c1ccc(-n2c(C)cc(-c3csc(NC(=O)c4ccc(S(=O)(=O)N(C)C)cc4)n3)c2C)cc1, the “activity change, positive = activation” value was inactive: -62.8%. Molecule CC(C(=O)N1CCc2ccccc21)n1cccc1 (stereo not given) has an activity change, positive = activation of 29.6%. In the case of COc1ccc(-c2nc3ccccc3n2Cc2ccc(Cl)cc2)cc1, the activity change, positive = activation is reported as 36.1%. Molecule COc1cccc(NC(=O)CSc2nnc(Cc3cccs3)n2-c2ccc(C)cc2)c1 has an activity change, positive = activation of 41.8%. In the case of Cc1sc2ncn(CC(=O)NCCCC(=O)N3CCN(Cc4ccc5c(c4)OCO5)CC3)c(=O)c2c1C, the “activity change, positive = activation” value is reported as inactive: -43.7%. In the case of O=C(NCc1ccccc1)c1cccc(COc2cc(Cl)ccc2Cl)c1, the Potency is reported as active: 12.6 µM. Molecule Cc1ccc2c(c1)C1OCCC1C1N2C(=O)C2C(C(=O)O)C3C=CC21O3 (stereo not given) has an activity change, positive = activation of 28.6%. With O=C(Cc1cccs1)N1CCCC(c2nc3c(nnn3Cc3ccccc3Cl)c(=O)[nH]2)C1 (stereo not given) the activity change, positive = activation was 33.9%. With Nc1[nH]n2c(=O)cc(-c3ccccc3)nc2c1N=Nc1ccccc1 the “activity change, positive = activation” value was inactive: -90.9%. For COc1ccc(NC(=O)c2cccs2)cc1OC, the activity change, positive = activation was 32.1%. COc1cc2c(OC)cccc2cc1C(=O)O showed an activity change, positive = activation of 31.2%. For Nc1nc2ccccc2n1/N=C/c1ccc(Br)cc1, the Potency was active: 35.5 µM. Work on COc1ccccc1Nc1nnc(SCC(=O)NC(=O)Nc2ccc3c(c2)OCCO3)s1 yielded an activity change, positive = activation of -61%. With COc1ccc(NC(=S)N(C)CC2COc3ccccc3O2)cc1 (stereo not given) the activity change, positive = activation was 56.1%. For Cc1ccc(NC(=O)c2ccc(OC(=O)c3cc4ccccc4o3)cc2)cc1, the Potency was active: 10 µM. In the case of CCOc1ccc(OCc2ccc(C(=O)NCc3cccnc3)o2)cc1, the “activity change, positive = activation” value is reported as inactive: -31.6%. With Cc1cccn2cc(-c3c[nH]c4ccccc34)nc12 the Potency was active: 12.6 µM. In the case of O=C(Nc1ccc(N2CCCC2)c(Cl)c1)c1ccco1, the Potency is reported as active: 6.31 µM. Molecule COc1ccc(Nc2nc(-c3cccs3)cs2)c(OC)c1 has an activity change, positive = activation of 86.2%. In the case of O=C1c2ccccc2C(=O)N1CCc1nc(-c2cccnc2)no1, the activity change, positive = activation is reported as 37.1%.
